Record: PubChem BioAssay AID1159578 (Peter MacCallum Cancer Centre, 2015)
Here is an unselected part of about 18,000 deposited reagents. In the full data, about 1,030 (5.7%) are marked active. 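Inactive calls also include pools with fewer than 3300 nuclei, whose migration was not assessed.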 The raw values are shown without normalisation. No sequences are given here.

Aim: 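Knock-downs that alter how fast lymphatic endothelial cells migrate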 (primary screen)
System: human lymphatic endothelial cells
Reagents: siRNA pool against human genes, 40 nM
Time to read-out: 48 h after transfection
Measurement: 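Cells stained with dye and imaged after a scratch; covered wound area and nuclei counted, duplicates averaged, migration set against mock wells and turned into a robust z-score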
Scale: migration robust z-score: higher = faster migration into the scratch; migration relative to mock: higher = more scratch area covered than mock; nuclei per well: higher = more cells in the well
Call rule: 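Pools averaging fewer than 3300 nuclei are never called; remaining pools count as changed when migration robust z lies outside -2 to 2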
Meaning of the calls: active = migration changed; inactive = no migration change, or too few cells

no.	target gene	PubChem SID	migration robust z-score	migration class with cell-count check	migration relative to mock	nuclei per well, duplicate mean	activity call
1	CRCP (GeneID 27297)	SID255357016	1.64	migration z between -2 and 2; enough cells	1.31	6182	inactive
2	NUDT16L1 (GeneID 84309)	SID255361321	0.7	migration z between -2 and 2; enough cells	1.06	5364	inactive
3	TRIM56 (GeneID 81844)	SID255360958	0.7	migration z between -2 and 2; enough cells	0.94	5593	inactive
4	OR56B4 (GeneID 196335)	SID255363959	-1.32	migration z between -2 and 2; enough cells	0.54	5412	inactive
5	TBC1D31 (GeneID 93594)	SID255362085	1.28	migration z between -2 and 2; enough cells	1.22	6190	inactive
6	XKR3 (GeneID 150165)	SID255363441	-0.94	migration z between -2 and 2; enough cells	0.64	7034	inactive
7	EDEM2 (GeneID 55741)	SID255358821	1.5	migration z between -2 and 2; enough cells	1.1	6072	inactive
8	OR13C5 (GeneID 138799)	SID255363053	0.68	migration z between -2 and 2; enough cells	1.06	5696	inactive
9	RILPL2 (GeneID 196383)	SID255363962	1.7	migration z between -2 and 2; enough cells	1.32	5438	inactive
10	SAFB (GeneID 6294)	SID255352278	0.38	migration z between -2 and 2; enough cells	0.99	4197	inactive
11	TMEM9B (GeneID 56674)	SID255359114	0.97	migration z between -2 and 2; enough cells	1.14	5987	inactive
12	MPDZ (GeneID 8777)	SID255353804	1.8	migration z between -2 and 2; enough cells	1.35	6879	inactive
13	PGM5 (GeneID 5239)	SID255351545	-1.38	migration z between -2 and 2; enough cells	0.54	5240	inactive
14	DCP1B (GeneID 196513)	SID255363974	-0.83	migration z between -2 and 2; enough cells	0.67	5574	inactive
15	TPM4 (GeneID 7171)	SID255352947	-0.86	migration z between -2 and 2; enough cells	0.64	5032	inactive
16	RPL18 (GeneID 6141)	SID255352175	0.2	migration z between -2 and 2; enough cells	0.94	4957	inactive
17	BNIP1 (GeneID 662)	SID255348566	-2.6	migration z below -2; enough cells	0.31	4278	active
18	RFPL1 (GeneID 5988)	SID255352102	-0.68	migration z between -2 and 2; enough cells	0.68	5526	inactive
19	C11orf58 (GeneID 10944)	SID255355466	0.22	migration z between -2 and 2; enough cells	0.94	5781	inactive
20	CBLL2 (GeneID 158506)	SID255363666	0.83	migration z between -2 and 2; enough cells	0.97	4848	inactive
21	MEAF6 (GeneID 64769)	SID255359986	-0.73	migration z between -2 and 2; enough cells	0.7	7134	inactive
22	ZFP91 (GeneID 80829)	SID255360825	0.66	migration z between -2 and 2; enough cells	1.06	5244	inactive
23	NLRP11 (GeneID 204801)	SID255364140	1.12	migration z between -2 and 2; enough cells	1.02	4324	inactive

3 entries already listed, arranged by “nuclei per well, duplicate mean”, ascending:
target gene	PubChem SID	migration robust z-score	migration class with cell-count check	migration relative to mock	nuclei per well, duplicate mean	activity call
CBLL2 (GeneID 158506)	SID255363666	0.83	migration z between -2 and 2; enough cells	0.97	4848	inactive
RFPL1 (GeneID 5988)	SID255352102	-0.68	migration z between -2 and 2; enough cells	0.68	5526	inactive
C11orf58 (GeneID 10944)	SID255355466	0.22	migration z between -2 and 2; enough cells	0.94	5781	inactive
